Reference: article PMC9859039, “The conserved centrosomin motif, γTuNA, forms a dimer that directly activates microtubule nucleation by the γ-tubulin ring complex (γTuRC)” (eLife, 2022)
No constants are given. Whether binding was seen depends on the method and setting. Where a sequence is shown, tags or fusion partners need not be part of it.

Key:
[1] = biological target: Strep-His-TEV-HaloTag-3C-human γTuNA I67D/L70D (human); test: SEC; Superdex 200 increase 10/300 GL, ~50 µM (monomer), CSFxB with 6 mM BME without sucrose, 4 °C, 0.7 mL/min; peak retention volumes compared; both purified
[2] = biological target: Strep-His-TEV-HaloTag-3C-human γTuNA I67A/L70A (human); test: as above

binding [1]	binding [2]	Binder
no binding (tested: 50 µM (monomer))	–	SPTRARNMKDFENQDTEDKKENFNLKLRIYFLEERMQQEFHGPTEH (domain or fragment) [Strep-His-TEV-HaloTag-3C-human γTuNA I67D/L70D]
–	no binding (tested: 50 µM (monomer))	SPTRARNMKDFENQATEAKKENFNLKLRIYFLEERMQQEFHGPTEH (domain or fragment) [Strep-His-TEV-HaloTag-3C-human γTuNA I67A/L70A]
